From article PMC6797744 come the findings set out here.

Sequences of proteins named here, by UniProt entry; tags and fusion partners are left off. A change or cut given only in a name is not applied to a line headed by its entry.
UniProt Q9H9S0: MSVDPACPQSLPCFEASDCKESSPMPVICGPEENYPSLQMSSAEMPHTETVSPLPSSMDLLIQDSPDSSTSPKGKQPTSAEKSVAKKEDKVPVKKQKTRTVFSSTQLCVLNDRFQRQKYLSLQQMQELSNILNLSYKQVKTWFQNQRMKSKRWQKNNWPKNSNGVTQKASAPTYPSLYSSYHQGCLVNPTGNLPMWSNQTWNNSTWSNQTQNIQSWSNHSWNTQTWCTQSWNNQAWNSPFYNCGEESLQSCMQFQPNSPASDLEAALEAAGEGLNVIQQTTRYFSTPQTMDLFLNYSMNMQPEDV
UniProt O43791: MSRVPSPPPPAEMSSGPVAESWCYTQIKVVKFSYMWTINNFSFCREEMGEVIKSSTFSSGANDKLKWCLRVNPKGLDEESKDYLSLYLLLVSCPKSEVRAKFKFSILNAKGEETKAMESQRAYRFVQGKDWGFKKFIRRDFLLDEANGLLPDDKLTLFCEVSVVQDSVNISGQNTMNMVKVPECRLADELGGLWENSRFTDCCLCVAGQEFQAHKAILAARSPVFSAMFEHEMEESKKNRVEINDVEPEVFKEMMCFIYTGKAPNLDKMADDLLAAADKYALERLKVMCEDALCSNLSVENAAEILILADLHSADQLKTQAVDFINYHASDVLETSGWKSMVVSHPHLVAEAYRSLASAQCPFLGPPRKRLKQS

One experiment has as its target His-NANOG (human) (UniProt Q9H9S0). The experiment can be described thus: co-IP; SW1990 cells treated with 20 uM MG132 for 8 h; lysates incubated with indicated antibodies at 4 °C overnight, then Protein A + G Agarose for 3 h at 4 °C; western blot. Background: Immunoblotting shows a protein as a band on a membrane.
A further experiment deals with NANOG (human) (UniProt Q9H9S0). The experiment is described as above.

No constants are given. Whether binding was seen depends on the method and setting. In cells and extracts the contact can be indirect. Some entries that bind do so weakly or less than the wild type.

On to “Flag-SPOP-Q360* (from UniProt O43791 1-359) (domain or fragment)”, for which the binding result in the experiment with His-NANOG (human) is reported as “binds”.

For “Speckle-type POZ domain protein (SPOP) (from UniProt O43791 1-374)”, the binding result with NANOG (human) is “binds”.
